The test system of series [1] is optically isomeric streptavidin. Nature of the series: HABA method with reagent for measuring L-biotin (optically isomeric streptavidin + HABA), absorbance at 500 nm. In kind it is binding.
A short description of series [2]: Protein concentration by A280 and number of biotin groups per molecule of biotin-labeled polypeptide. The class given is physicochemical. The note with it: biotin concentration divided by molar concentration of BSA or Fab′.

Consider `O=C(O)CCCC[C@H]1SC[C@H]2NC(=O)N[C@H]21` [L-Biotin, 3aR,4R,6aS-L-biotin], for which the A500 in series [1] (L-biotin standard solution 25 μM, reagent for measuring L-biotin) is given as 0.264; in series [1] (L-biotin standard solution 50 μM, reagent for measuring L-biotin), 0.216.
In the case of “D-Bio-BSA: BSA labeled with D-biotin AC5-NHS”, the Number of labels in series [2] is 9.1.
Regarding “L-Bio-BSA: BSA labeled with L-biotin-AC5-NHS”, the Number of labels in series [2] is 8.2. For the same molecule, the L-Biotin in series [1] (from calibration curve, BSA sample value multiplied by 100) turned out to be 1231.9 µM. Further, the A500 in series [1] (sample with reagent for measuring L-biotin, BSA sample diluted 100-fold) is on record as 0.234.

The values above are taken from US20230288426A1, “REAGENT FOR MEASURING L-BIOTIN, METHOD FOR MEASURING SAMPLE CONTAINING L-BIOTIN, METHOD FOR DETERMINING NUMBER OF LABELS OF L-BIOTIN-LABELED SUBSTANCE, AND METHOD FOR PRODUCING SOLID PHASE ON WHICH OPTICALLY ISOMERIC BIOTIN-BINDING SITE IS IMMOBILIZED” (SYSMEX CORPORATION, priority 2022, published 2023).
